Source: paper PMC11651612

T1: Cdc3-mCherry (C. neoformans) (UniProt J9VUF2)
T1 sequence: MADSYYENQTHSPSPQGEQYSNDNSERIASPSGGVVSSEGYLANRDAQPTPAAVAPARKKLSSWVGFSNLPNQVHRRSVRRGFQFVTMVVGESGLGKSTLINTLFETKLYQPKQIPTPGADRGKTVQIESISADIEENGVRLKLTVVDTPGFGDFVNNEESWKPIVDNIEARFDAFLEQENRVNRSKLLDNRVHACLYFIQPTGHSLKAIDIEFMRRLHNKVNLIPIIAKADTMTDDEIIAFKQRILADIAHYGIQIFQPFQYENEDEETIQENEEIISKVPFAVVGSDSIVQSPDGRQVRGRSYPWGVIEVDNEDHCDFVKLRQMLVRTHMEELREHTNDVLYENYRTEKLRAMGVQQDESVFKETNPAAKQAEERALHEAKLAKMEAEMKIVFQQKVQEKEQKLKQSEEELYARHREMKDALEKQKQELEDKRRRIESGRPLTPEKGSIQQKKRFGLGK

B1: Septin ring protein CDC10 (protein, UniProt J9VMT9 1-322)
chain: MASLVSPAPEEIAAASYVGFDSITRQIEHKLLKRGFQFNVMVVGQTGLGKSTLINTLFASHLIESKGRFEPDVLPRQTTEIAAQSHVIVENGVRLKLNIIDTPGYGDNVNNEGCWDPIIKYIKDQHSAYLRKELTAMRDRFIPDTRIHCCLFFINPTGHTLKPIDIVVLKKLTEVVNVVPVIAKSDSLTLEERSLFKQRILAEMHHNQIRMFPFDSDELDEEELRANERVREMLPFAIVGSERSVIIDGKPVRGRKNRWGVINVEDERHCEFVYLRNFLTRTHLQDLIETTAQVHYETFRSKQLLALKESSAKAQQASASTA
B2: Omega-6 fatty acid desaturase (Delta-12 desaturase) (protein, UniProt J9VTF7 1-448)
chain: MTSTLRQRAVTPPAGQVEKDQLLREAEEKEISQGQQFIVPNFTIKQLLDAIPAHCYKRSALRSSLYVVQDAVIIAALVYGAFHIDSFLGRFSLSPVAYYAAKFALWSAYWFITGLFGTGIWVIAHEAGHQAYSSSKAINNAVGWVLHSALLVPYHSWRISHGRHHAATGHLTRDEVFVPRTRKQLGYPEVEEEGEILGINVSKERQNQLREALEDSPIVVCYNLFLQQLFGWPMYLIRNASGQLHYPEKTNHFSPHSFIFKANQYWQIVWSDIGIVLVFAALTFWASQRGIKEVATIYGIPYLWVNHWLVFITFLQHTDPILPHYSANKWTFPRGALATIDRDFLGPVGAYVFHGITETHVAHHISSKIPHYNAWEATEALKKFLGPAYHKSDENMFVSCYKCYRDCLFVEDGQDIVFYKNASGLAQRVPVEENGNISDSGIDMAEPK
B3: Midasin (protein, UniProt J9VK61 1-972)
chain: MSSLGQKKQAPTPSKTPKKPTQNPEKGASGALGSVKDTAGGATKTAGDTVSGATKQAPGPAKDVGKKVGDTAKDVGGKTSQAAQNPTTPKKAPQPKQAADSPTKKASEGTDKLQKQGEDVAKTAQKQDVKPASAGKGPEKEAAPQTPQEEAAPQTPQEGAAPQTPQEEAAPQTPQQESDDEDKGENQDDNKGEEEEGNDEPVEDEPEGQDQNEGAPEGESGDEDAAKPETLDEPAGDAGGEEQGAPVSDDKEGGVDQAVDKANENKPDDKEGGVDQAVDEANENKPDDKEGGVDQAVDKANENKPEFTGPLTVDQTGKIKDADDRTIASVSEEDAKKLEGSEIADIDASGNLMNKEGDVIGNAELGQGLAQAEEQIDYSVLKGLSPNKAGNLVAKDGITVGKVVDGNLKKLQGRRCTAKGEFFDDAGKKIGQAEPIPEDERSNPEGAPFEDFEGATVQQNGDVVHNGAKVGEIVEGDAKKIAGKTVDADGDVVDKSGTIVGKAQRWYEPEEQEPEKADLSLLAGNRVNKSGYIVDNSGKLLGRVVEGDPAKLAGKMCDKEGQIWNEGGSVVGRAELLPESEREGQKEGPFSDFQPATVRKDGKVIDNSGTVIGRLVEGDAAKLHGKSVDEQGDVVDKNGNKIGSAERWEEEEKEEEKHPAAGLKVNNEGAVIDNNGNTVAKLTEGEISRCRGKEIDNDGDVVDGKGKSIGRVTLVQDLPKRDEAAEQKKAEEEEARKAAEQKKAEEDEERKAAEQKKAEEDEERKKKEDEELKKLEGDSKLAKRMAYEVDSTLDRIKPVLEEMTDLIEDAHSKPKEEVDQEALVKKVKPLIHKSSDILNQCNSNIREMDPDGRMQQQAKENAATGEATPEERHLAEGLKKLSTEVTDAIRKGKKGIEGMPEAKKGISPLWRLLEQPLVQILAAVGLLLSGVLGLVNQLLGGLGLNGLLDGLLGGLGLDKLLGGLGIPKLGGK
B4: U3 small nucleolar RNA-associated protein 12 (protein, UniProt J9VLP6 1-988)
chain: MVKSYMRHGPTQAFGIISSPTANSSYNGRLAYVPGWEDVLVWDTKRGEMVAMWHSTGLTSSVTYLTPAPTPYTSTSTTPVTFAVSYQDGSIRLWSYDPSTPEIEASETVTFNGHKKSVTIMTWDHDASRLASGGTEGEIVIWDRIGEVGLFRLKGHRAPITGLAFIPHPRGGHPGWLISTSRDTYLKVWDLGTQHCVQTVVVGRGEVTSLAVREEAEESITGQGEGEAEDQEEIKGRWVVVTGTGDGEAKVYTVEKSQLARGMAEDENGELPALITSVCTLPLPSSTHPISQMAWHPALPLLSLQTSDRGVAILRLRTEEEVSAKRARRKKRDREKKKKGKGDKQKEEDKEEDETDEPVKWEERVAVWCMVRANAKVKSFAFANENVVSVKGGVSLLLALSNNSIESYTIPTPGSKSKLAGGTTPEPTKTHSIELPGHRQDIRTISISSDDQVIASASSGTLKLWNARTTACIRTMECGYALCSTFLPGDRHVMIGTKAGELMLYDVAASSLLKTYKAHTGPVWSVSVRPDGRGLVSGSADKDVKFWDFEMRQEGEGERVVSRLGVETVYKTKQLALVHVRTLKMTDDILSLKYSPNGRFLAIALLDSTVKIFFSDTLKFFLSLYGHKLPVLSLDISSDSKLLVTCSADKNVKIWGLDFGDCHKSIFAHDEAVMGVMFEKEAGSHNFWTVGKDRMVKYWDGDKFELIQKLSGHHGEIWALSTSQSGQFVVTGSHDKSIRIWEKTDEPLFLEEEREKEIEAMYDSNLADTLNREPGEGEGEGDETEAVQKQTAETLVAGEKIMEAIELADADRAATHQWEEDNAKSKVEIPRPPRNAELIARGDLEPDEYVLKVVQKIPAAQMEDALLVLPFRMVVSLMGYLDEWAMQGKEIILVSRILFFLLRTHSSQIVSNRIMRTPLLTLRHHLRDALAQQRDVMGYNLAALKFLKGRWEGERVAGLYEQEGLDEEAVRKRLEEGRGKRKRIEVRA
B5: Chlorophyll synthesis pathway protein BchC (protein, UniProt J9VU15 1-349)
chain: MVAKEMNALLYSEPRKFEITKVPVPEIGPEEVLLKVDICGVCGTDQHIHEGEFIAKFPLVPGHEAVGRIVAMGDKVKGFDVGDRIAADVGETCGYCHYCRKGTELFCENFAPAGVARDGGFADYIKYHFAKCYKIKNLSDEEATLLEPASCAIHGMDVLKMPFGARVLLIGAGPTGLILAQLMKMGGASHITIAANAGIKMDIARKVEAADEYIDLDRSNPGPQWAKLKEDNPYGFDVVAEATGVESLVNDAINYVTRGGTLLVYGVYEDKARLPGWSPTDIFVNEKRIIGSFSQTYCFPRAIDLLDSGKIKTTGMVTDVFPLSDYQGALDKMASRKALKIAIKPEHKD
B6: ULP_PROTEASE domain-containing protein (protein, UniProt J9VVE7 1-908)
chain: MSVAATKSEISHNPGKMSVTSAVSGEKVEGDVQSRMKLFGAIQAFRDGRMPDNEQIGSVLEYAIGHSPVDLQKLSPEGRVLIEDFRDTLETLRMIVHEKNSDELFQNAVWSSYHGDVSKAKQDGVIPVSNEQAKQDGKTAASHIRVLITLFLTNSEARKLLKDFGIVGRDIFATAATKAADKSRPSQEKLDSVDQEAPSHEWIGADGKRLGPNETPDIQIKGPGGTQARYHPRDDPRDAQLVDDKGKTRSAGEAYNQAQEAKSDAQSKAQDLKSSARDYKETGKQQARSHAQDVAGNRDPNASLSEQKEQVKGAAYDKRDAANAQADQNLPDPNDEGNQEKARGKAAALRDRIPEEHRQKAADYIQKSKNFVNDELPEERRDQFIYRLKKVVVECQGHKDYQEAMTWLLDTLENYRGHAKHVANKGTESAQTVANDPAVGDSTIQFRTLLERFANGKSLDNVFSALDQIYTDVQNDSELREWFTTFNDYMHRVLLEPGYILDEDSDREARQLRESGRRFFQDKYKAHQELLFDELQVWLTAFGEDPLNVRLGDDIKRFCKDLLFNHEGNLTFKPKLWNDVRQVLLPMLLKQVSYVPIPRAEYSDNSIDLVIEDLILSGPNLFPNLVHIESFNSFSFSPYPKLNKTMDNQHHKFRLSLSQIQADIRDVAFAFRRKSGWPKLSDHGLADVVLAGKGISVDVELESIENRRDTVFKTNFIHVNIDTLKFSIRNSKHDLLYKFIKSTATGLIKRAITAAVQNAMHTALGHLDEQLVEVRNRVDEAKQSDETTRTQALKDLYSRKKESAQEKKAAADEKTGTFKIITDRDSQLNPELTHDGGKSWAKRAFKVEDAARTGKEWRSPAFNLIDPAHPAVTGQHHPAVQNADVESEKLKQRAEAAAPGVAAGTKRM
B7: Porphobilinogen deaminase (protein, UniProt J9VZ65 1-481)
chain: MSCPFHTTTNTSIRNPLPDRALLLAMKSQTNTFILGTRKSNLALVQTGHVADDLRRLHSAAGSKFGETREEGDDAEQGDVPFVHPYTFSIESMTTVGDRNQTTPLHLLSPYSSTQPAKSLWTDELEARLINGHFDMLVHSLKDVPTVLKDGCEIGCMAKRHDPRDALVVKQGLPYKRLEDLPDGAVVGTGSVRRVAQLKRAFPNLVFEDMRGNLNTRFNKLDNPQSPFSALILAMSGLERLGMAHRATSPLSSPTLMHAVGQGALAIEIRSTDPRVRNCLRGLGHWQTEWSCGAERGCLRVLEGGCSVPVGVESELVELDEDEVAAHPELLEGVEDPFRGQEESPLEGDSPMLWFSGLVDTTSTPTPSTPTFSSHSLPPLRTRLAKLTLHSCVTSTDGSKHVLFTPPPVLVRSYRQAEQFGEECARKLRGMGAGEILDEINKLRKERELRDLESAIERSRAAQEEGEKMGLVQDGTAEVVA
B8: Pre-mRNA-splicing factor CWC24 (protein, UniProt J9VRG9 1-328)
chain: MSEAPAPVVTFKKGPSRRPAQSRQRRRSPSPLDPVAETSASASSSSVVRPEKKSLANPLVQGTKRRRTNANNEEENGVGGGLDEFDYAAEGGLTRKGDELATRANDWDLEDGDGQGKRDKKVRLDEDGEIVTDDGLYRGASAYLPTINKTRETLDKKMKSGPIKATSHVRTITLMDYQPDVCKDYKETGFCGYGDSCKFLHDRGDYLAGWQLDKLPEEGVREVEEEDEEEEVPFACLICRQPFTQPVVTKCGHYFCMGCAAKRFQKSPKCYACGAPTQGIFNIADKVIAKIEARNKARREAREERAEQTGGGGIEIGGGSDDEGSDEE
B9: Glucose and ribitol dehydrogenase (protein, UniProt J9VLN0 1-305)
chain: MPPPSSVPKEYRPGYIPPSITGQAQKDLPGKQRPLDPTPFNDVMADGSKYKPAGKLEGKNAVVTGGDSGIGRAVAILYALEGANVLFTYHPSEEADAKDTVDDIKKRAPKAKVEAVAAEIQTEKACFELADKIKKWSGNELHVLANNAGTQKEIPNIEDLPSEQWRHVFDVNIHSMFYLIKSLIPIMPWGSSIINNASINPFVGHPKLLDYTATKGAIVGFSRALSNQIVGERGIRVNCVCPGPIWTPLIVATMGEESLKAFGPGTPIGRAGQPVEVATAFVFLASIDSSYFTAQCFHVNGGSAY

target: T1, Cdc3-mCherry (C. neoformans); test: affinity purification with mass spectrometry; mCherry-tagged septin captured from C. neoformans lysate on RFP-Trap agarose, 4 h at 4°C, washed with TBS with 2 M urea pH 7.5; GeLC-MS/MS; untagged H99 as negative control; hits logFC >2 and adjusted p <0.001 (text-named hits <0.05); exponential cultures at ~25°C or shifted to 37°C for 2 h; N = 5

binding, binds:
B1, B2, B3, B4, B5, B6, B7, B8, B9

Results are given in words; binding and its absence hold for the method and conditions named. Binding seen in cells or lysates may run through a third protein. These calls come from enrichment with a bait or labelling near it, and not all partners need be listed. Sequences can lack the tags named with a protein.
